From patent US20210393523A1 (Avldea Technologies, Inc., priority 2018, published 2021)
Where a sequence shows no end group, the ends are not given.

Assay: peptide synthesis
Details: for final HPLC purity / crude HPLC purity: conjugation step, AUC at 254 nm; for outcome: whole synthesis

Substance	final HPLC purity	also measured
DBCO-2-Amino-1,3-bis(carboxylethoxy)propane(Ahx-F′10)2	83.4%	–
DBCO-2-Amino-1,3-bis(carboxylethoxy)propane(Ahx-W5)2	>95%	–
DBCO-Ahx-(F′)20	94.4%	–
DBCO-Ahx-W5	92.6%	–
FFFFFFFFFF	–	outcome: N | —
FWFWFWFWFW	–	outcome: N | —
Ks-PEG24-(N3-DBCO)-Ahx-W5	–	crude HPLC purity: 90.2%
LLLLLLLLLL	–	outcome: N | —
WWWWWWWWWW	–	outcome: Y | Crude
{COOH-PEG24}4-{propargyl}4K2K{Lys(N3)}-DBCO-2-Amino-1,3-bis(carboxylethoxy)propane(2BXy)4	–	final HPLC purity (run 1): 98.0%; final HPLC purity (run 2): 90.4%
{NH2—PEG24}4-{propargyl}4K2K{Lys(N3)}-DBCO-2-Amino-1,3-bis(carboxylethoxy)propane(2BXy)4	67.7%	–
{OH-PEG24}4-{propargyl}4K2K{Lys(N3)}-DBCO-2-Amino-1,3-bis(carboxylethoxy)propane(2BXy)4	99.3%	–
{OH-PEG24}4-{propargyl}4K2K{Lys(N3)}-DBCO-2-Amino-1,3-bis(carboxylethoxy)propane(Doxorubucin)4	95.8%	–
{OH-PEG24}4-{propargyl}4K2K{Lys(N3)}-DBCO-Ahx-(F′)10	94.1%	–
{OH-PEG24}4-{propargyl}4K2K{Lys(N3)}-DBCO-Ahx-W5	63.0%	–
{propargyl}4K2K{Lys(N3)}-DBCO-2-Amino-1,3-bis(carboxylethoxy)propane(Doxorubicin)4	91.3%	–
{propargyl}4K2K{Lys(N3)}-DBCO-Ahx-(F′)10	–	crude HPLC purity: 96.1%
{propargyl}4K2K{Lys(N3)}-DBCO-Ahx-W5	99.4%	–
